Part of at least one peptide drawing is inferred or uncertain, most often the ends. Positions of bridges follow the written chain, without caps; N, C: chain ends. Non-standard residues stand in square brackets, D forms with d. Residues, ends and D or L forms follow the SMILES beside them.
Experiments:
[1] = test system: dopaminergic TH-positive neurons injured with MPP+; assay: Neuroprotective effect on dopaminergic TH-positive neurons injured with MPP+ (primary mesencephalic culture); assay type: cell-based, rat; conditions: MPP+ 4 μM, 48 h; stated for 'most cases'
Experimental: Neuroprotective effects of compounds 1-20 (SEQ ID NO:s 1-20, parent and retro-inverso) were tested in an in vitro model in which primary cultures of rat embryonic mesencephalic neurons were stressed with MPP+, the active metabolite of neurotoxin 1-methyl-4-phenyl-1,2,3,6-tetrahydropyridine (MPTP). MPP+ kills dopaminergic (TH-positive) neurons via a variety of toxic mechanisms, including mitochondrial dysfunction, generation of peroxynitrite, oxidative stress, ER stress and induction of apoptosis.
Rat dopaminergic neurons were cultured as described by Visanji et al., 2008. Briefly, the midbrains obtained from 15-day-old rat embryos (Janvier, France) were dissected, and the ventral portion of the mesencephalic flexure, a region of the developing brain rich in dopaminergic neurons, was used for the cell preparations. The midbrain cells were dissociated by trypsinization for 20 min at 37° C. […] The reaction was stopped by adding Dulbecco's modified Eagle's medium (DMEM) containing DNAase I grade II (0.5 mg/mL) and 10% of fetal calf serum (FCS). Cells were then mechanically dissociated by 3 passages through a 10 ml pipette. Cells were then centrifuged at 180×g for 10 min at +4° C. on a layer of BSA (3.5%) in L15 medium. The cell pellets was re-suspended in a defined culture serum-free medium consisting of Neurobasal (Invitrogen) supplemented with B27 (2%), L-glutamine (2 mM) and 2% of PS solution and 10 ng/ml of Brain-derived neurotrophic factor (BDNF) and 1 ng/mL of Glial-Derived Neurotrophic Factor (GDNF). […] The cells were seeded at a density of 40 000 cells/well in 96 well-plates (pre-coated with poly-L-lysine) and maintained in a humidified incubator at 37° C. in 5% CO2/95% air atmosphere. Half of the medium was changed every 2 days with fresh medium. On 96-wells plates, only 60 wells are used. To avoid any edge effect, the first and last lines and columns were not be used for culture and were filled with sterile water. […]

[2] = test system: unfolded protein response (UPR) pathway signaling in TH-positive neurons injured with MPP+; assay: Dependence of neuroprotection in MPP+-injured mesencephalic neurons on UPR signaling (PERK / IRE1alpha inhibitors); assay type: cell-based, rat
Experimental: CDNF and MANF protect cells from ER stress-induced cell dysfunction or cell death, such as apoptosis by modulating cellular responses to ER stress. […] Binding of compounds to GRP78-NBD was assessed in a cell-free binding assay using purified recombinant GRP78-NBD and synthesized peptides. As GRP78 also serves as a critical ligand of the three receptors of the unfolded protein response (UPR) pathway, IRE1[…], PERK and ATF6, the dependency of the compounds' neuroprotective effects on UPR signaling was also tested.
The neuronal cell culture, MPP+ intoxication, immunostaining and analysis of neuroprotective effects of compounds were performed as in Example 1. PERK inhibitor GSK2606414 (2 µM, Sigma) or IRE1alpha inhibitor KIRA6 (2 µM, Sigma) were added to is the culture 1 h before addition of the test compounds.

Q: How did the “potency of retro-inverso peptides relative to their parent compounds and to full-length CDNF protein” value [1] turn out when C[C@H](O)[C@@H](NC(=O)[C@H]1CSSC[C@@H](NC(=O)[C@@H](C)NC(=O)[C@@H](CCC(=O)O)NC(=O)[C@@H](CCCCN)NC(=O)[C@H](N)CO)C(=O)NCC(=O)N[C@H](CCCCN)C(=O)N1)C(=O)N[C@H](CCC(=O)O)C(=O)NCC(=O)O [Compound 8, SKEACGKCTEG] (H-[dS][dK][dE][dA][dC]G[dK][dC][dT][dE]G-OH; disulfide 5-8; N-terminus and C-terminus assumed) was run?
A: comparable

Q: For C[C@H](O)[C@@H](NC(=O)[C@H]1CSSC[C@@H](NC(=O)[C@@H](C)NC(=O)[C@@H](CCC(=O)O)NC(=O)[C@@H](CCCCN)NC(=O)[C@H](N)CO)C(=O)NCC(=O)NCC(=O)N[C@H](CCCCN)C(=O)N1)C(=O)N[C@H](CCC(=O)O)C(=O)NCC(=O)O [Compound 12, SKEACGGKCTEG] (H-[dS][dK][dE][dA][dC]GG[dK][dC][dT][dE]G-OH; disulfide 5-9; N-terminus and C-terminus assumed), which “potency of retro-inverso peptides relative to their parent compounds and to full-length CDNF protein” value [1] is on record?
A: comparable

Q: How did the “potency of retro-inverso peptides relative to their parent compounds and to full-length CDNF protein” value [1] turn out when C[C@@H](NC(=O)[C@@H](CCC(=O)O)NC(=O)[C@H](N)CCCCN)C(=O)N[C@@H]1CSSC[C@H](C(=O)N[C@H](CCC(=O)O)C(=O)N[C@H](CCC(=O)O)C(=O)O)NC(=O)[C@@H](CCCNC(=N)N)NC(=O)[C@@H](C)NC1=O [Compound 14, KEACARCEE] (H-[dK][dE][dA][dC][dA][dR][dC][dE][dE]-OH; disulfide 4-7; N-terminus and C-terminus assumed) was run?
A: comparable

Q: And the “neuroprotective effect in the presence of PERK inhibitor GSK2606414” value ([2]; GSK2606414 added 1 h before test compound)?
A: abolished

Q: What about the “neuroprotective effect in the presence of IRE1alpha inhibitor KIRA6” value ([2]; KIRA6 added 1 h before test compound) of the same compound?
A: abolished

— US20230391842A1, “RETRO-INVERSO PEPTIDES” (Herantis Pharma OYJ, priority 2019, published 2023)
